# Measurements reported in PMC7674640.
# By UniProt entry, the sequences of proteins in these tests, tags left out. Residues count along the entry.
# UniProt Q9SI75, residues 81-783: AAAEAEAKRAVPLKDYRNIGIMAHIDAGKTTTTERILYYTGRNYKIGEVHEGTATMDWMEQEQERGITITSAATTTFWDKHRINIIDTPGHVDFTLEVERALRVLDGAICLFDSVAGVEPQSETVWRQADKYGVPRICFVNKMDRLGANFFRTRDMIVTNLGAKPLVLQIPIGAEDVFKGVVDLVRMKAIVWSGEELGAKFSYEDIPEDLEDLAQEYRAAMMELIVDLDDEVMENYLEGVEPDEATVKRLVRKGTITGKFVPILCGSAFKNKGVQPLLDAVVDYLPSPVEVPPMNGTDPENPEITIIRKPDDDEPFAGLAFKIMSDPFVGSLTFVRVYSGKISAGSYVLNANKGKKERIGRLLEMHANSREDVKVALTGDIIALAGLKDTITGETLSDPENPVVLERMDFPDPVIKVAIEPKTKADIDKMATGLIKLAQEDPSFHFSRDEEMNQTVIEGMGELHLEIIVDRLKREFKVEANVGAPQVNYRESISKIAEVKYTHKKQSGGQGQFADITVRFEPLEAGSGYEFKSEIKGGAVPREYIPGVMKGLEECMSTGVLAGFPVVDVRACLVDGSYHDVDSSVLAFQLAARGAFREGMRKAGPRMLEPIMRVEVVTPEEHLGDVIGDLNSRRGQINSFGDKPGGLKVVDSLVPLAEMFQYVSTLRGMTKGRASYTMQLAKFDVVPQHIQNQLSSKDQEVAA
# UniProt P17745, residues 68-476: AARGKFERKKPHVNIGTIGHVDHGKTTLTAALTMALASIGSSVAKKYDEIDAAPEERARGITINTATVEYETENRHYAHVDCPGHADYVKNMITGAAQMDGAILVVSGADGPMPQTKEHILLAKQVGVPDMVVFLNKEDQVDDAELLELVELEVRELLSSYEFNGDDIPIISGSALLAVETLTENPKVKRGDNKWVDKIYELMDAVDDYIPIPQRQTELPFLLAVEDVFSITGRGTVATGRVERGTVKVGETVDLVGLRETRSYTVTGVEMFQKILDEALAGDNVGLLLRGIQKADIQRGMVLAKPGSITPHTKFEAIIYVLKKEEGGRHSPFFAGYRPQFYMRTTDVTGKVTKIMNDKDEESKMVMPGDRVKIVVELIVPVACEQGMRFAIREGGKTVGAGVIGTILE
# UniProt P34791, residues 80-260: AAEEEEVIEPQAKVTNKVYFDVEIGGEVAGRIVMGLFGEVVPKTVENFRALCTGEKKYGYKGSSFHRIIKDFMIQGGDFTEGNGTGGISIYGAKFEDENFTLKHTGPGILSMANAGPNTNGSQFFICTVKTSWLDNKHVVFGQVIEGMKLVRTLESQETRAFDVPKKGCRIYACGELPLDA
# UniProt Q9SJE1, residues 50-760: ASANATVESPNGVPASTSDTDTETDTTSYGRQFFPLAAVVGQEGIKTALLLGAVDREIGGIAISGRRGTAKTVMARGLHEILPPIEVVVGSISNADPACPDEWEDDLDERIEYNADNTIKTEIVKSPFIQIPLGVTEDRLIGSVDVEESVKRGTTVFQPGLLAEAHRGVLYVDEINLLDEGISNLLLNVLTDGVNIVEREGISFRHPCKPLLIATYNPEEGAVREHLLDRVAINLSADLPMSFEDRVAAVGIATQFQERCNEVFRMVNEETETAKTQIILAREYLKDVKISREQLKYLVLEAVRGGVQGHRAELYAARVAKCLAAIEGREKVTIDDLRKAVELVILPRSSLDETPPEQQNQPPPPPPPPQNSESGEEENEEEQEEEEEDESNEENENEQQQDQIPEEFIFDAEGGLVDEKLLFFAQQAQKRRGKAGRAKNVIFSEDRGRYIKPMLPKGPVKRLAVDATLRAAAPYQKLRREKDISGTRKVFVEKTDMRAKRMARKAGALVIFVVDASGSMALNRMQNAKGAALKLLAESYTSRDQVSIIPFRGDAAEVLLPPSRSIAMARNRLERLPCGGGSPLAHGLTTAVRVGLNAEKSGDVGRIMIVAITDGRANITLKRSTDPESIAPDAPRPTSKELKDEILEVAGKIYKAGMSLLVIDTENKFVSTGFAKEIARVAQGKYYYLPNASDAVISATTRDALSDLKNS
# Like-named read-outs stand apart in the source and are kept apart here. These are yes or no findings as the source states them, for the method shown. Binding seen in cells or lysates may run through a third protein. Here binding means that the protein was enriched with, or labelled near, the bait; the list need not be complete. For some assays here: No binding means not detected with the bait.
# B1: polyadenylate-binding protein 8 (protein, UniProt Q9FXA2 1-671)
# chain: MAQIQHQGQNANGGVAVPGAAAAEAAAAAAGAAAAAAGAAQQGTTSLYVGDLDATVTDSQLFEAFTQAGQVVSVRVCRDMTTRRSLGYGYVNYATPQDASRALNELNFMALNGRAIRVMYSVRDPSLRKSGVGNIFIKNLDKSIDHKALHETFSAFGPILSCKVAVDPSGQSKGYGFVQYDTDEAAQGAIDKLNGMLLNDKQVYVGPFVHKLQRDPSGEKVKFTNVYVKNLSESLSDEELNKVFGEFGVTTSCVIMRDGEGKSKGFGFVNFENSDDAARAVDALNGKTFDDKEWFVGKAQKKSERETELKQKFEQSLKEAADKSQGSNLYVKNLDESVTDDKLREHFAPFGTITSCKVMRDPSGVSRGSGFVAFSTPEEATRAITEMNGKMIVTKPLYVALAQRKEDRKARLQAQFSQMRPVNMPPAVGPRMQMYPPGGPPMGQQLFYGQGPPAMIPQPGFGYQQQLVPGMRPGGSPMPNFFMPMMQQGQQQQQQQQQQQRPGGGRRGALPQPQQPSPMMQQQMHPRGRMYRYPQRDVNTMPGPTQNMLSVPYDVSSGGGVHHRDSPTSQPVPIVALATRLANAAPEQQRTMLGENLYPLVEQLEPESAAKVTGMLLEMDQTEVLHLLESPEALKAKVTEAMDVLRSVAQQQAGGAADQLASLSLGDNIVP
# B2: ribonuclease TUDOR-1 (protein, UniProt Q8VZG7 1-991)
# chain: MATGAENQWLKGRVKAVTSGDCLVITALSHNRAGPPPEKTITFSSLMAPKMARRGGIDEPFAWESKEFLRKLCIGKEVAFKVDYKVEAIAGREFGSVFLGNENLAKLVVKTGWAKVREPGQQNQDKVSPYIKELLQLEELAKQEGYGRWSKVPGAAEASIRNLPPSAIGDSAGFDAMGLLAANKGKPMEGIVEQVRDGSTIRVYLLPEFQFVQVFVAGVQAPSMGRRTTNGSVVETVPDEPNGDVSAESRGPLTTAQRLAASAASSVEVSSDPFATEAKYFTEHRVLSRDVRIVLEGVDKFNNLIGSVHYSDGETVKDLGLELVENGLAKFVEWSANMMEEEAKKKLKAAELQCKKDKVKMWANYVPPATNSKAIHDQNFTGKVVEVVSGDCLIVADDAVPFGSPAAERRVCLSSIRSPKMGNPRREEKPAPYAREAREFLRQRLIGKQVIVQMEYSRKVTQGDGPTTSGAADRFMDFGSVFLPSAAKADSDEVTAPPAAAIAGSQPVGVNIAELVLVRGFGNVVRHRDFEERSNHYDALLAAEARALAGKKGIHSAKESPAMHITDLTVSAAKKAKDFLPSLQRIRRIPAVVEYVLSGHRFKLYIPKITCSIAFSFSGVRCPGRGEPYSEEAISVMRRRIMQRDVEIEVETVDRTGTFLGSMWESRTNVATVLLEAGLAKMQTSFGADRIAEAHLLEQAERSAKNQKLKIWENYVEGEEVSNGNTNTVETRQKETLKVVVTEVLGGGRFYVQSAGDQKIASIQNQLASLSIKDAPIIGSFNPKRGDIVLAQFSLDNSWNRAMIVTAPRAAVQSPDEKFEVFYIDYGNQETVPYSAIRPIDPSVSAAPGLAQLCRLAYIKVPSLEDDFGPEAGEYLHTVTLGSGKEFKAVIEERDTSGGKVKGQGTGTEFVVTLIAVDDEISVNAAMLQEGIARMEKRQKWGHKGKQAALDALEKFQEEARKSRIGIWQYGDIESDDEDTGPARKPAGGRR
# Legend:
# [1] = target: SCO1-GFP (snowy cotyledon 1 fused to GFP) (Arabidopsis thaliana) (UniProt Q9SI75); assay: affinity purification with mass spectrometry; plastidial stress granules (cpSG) from heat/dark-treated (42°C, 30 min) 35S:SCO1-GFP seedlings enriched by differential centrifugation, then purified with anti-GFP rabbit IgG and protein A Dynabeads; lysis buffer 50 mM Tris-HCl pH 7.4, 100 mM potassium acetate, 2 mM magnesium acetate, 0.5% NP-40; hits absent from or enriched (fold change > 2, p < 0.05) against isolates of control seedlings
# [2] = target: SCO1-GFP (snowy cotyledon 1 fused to GFP) (Arabidopsis thaliana) (UniProt Q9SI75); assay: as above; remark: listed apart in the source
Molecule,binding [1],binding [2]
translation elongation factor Tu (RABE1b) (from UniProt P17745 68-476),binds,–
CYP20-3 (At3g62030) (from UniProt P34791 80-260) (enzyme),binds,–
ALB1 (magnesium chelatase subunit) (from UniProt Q9SJE1 50-760),binds,–
B1,–,no binding
B2,–,no binding
